For test [1], the target named is Gcn5-TAP (S. cerevisiae) (UniProt Q03330). The test is described as follows: affinity purification with mass spectrometry; quantitative mass spectrometry of Gcn5 purified from WT and not5Δ, total purified proteins and SAGA-sized complexes.
Test [2] has the same target. The experiment in a line: affinity purification with mass spectrometry; single affinity purification step of the TAP-tagged subunit, SDS-PAGE, coomassie staining, bands identified by mass spectrometry; WT and not5Δ cells.
A further test has as its target T1, Ada1-TAP (S. cerevisiae) (UniProt Q12060).
T1 sequence: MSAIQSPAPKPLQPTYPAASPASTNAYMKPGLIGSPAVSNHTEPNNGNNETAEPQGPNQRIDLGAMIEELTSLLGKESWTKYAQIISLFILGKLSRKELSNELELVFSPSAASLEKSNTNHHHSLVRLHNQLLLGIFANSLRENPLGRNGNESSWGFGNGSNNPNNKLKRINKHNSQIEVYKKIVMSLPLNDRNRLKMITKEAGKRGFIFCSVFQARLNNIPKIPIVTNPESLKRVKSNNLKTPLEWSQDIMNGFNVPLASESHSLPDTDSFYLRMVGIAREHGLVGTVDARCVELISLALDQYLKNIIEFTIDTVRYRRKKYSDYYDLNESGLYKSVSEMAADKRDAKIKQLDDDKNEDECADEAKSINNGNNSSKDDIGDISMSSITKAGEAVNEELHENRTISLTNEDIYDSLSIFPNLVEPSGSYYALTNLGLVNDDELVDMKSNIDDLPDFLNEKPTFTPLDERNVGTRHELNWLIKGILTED
The test is described as above.

Sequences of proteins named here, by UniProt entry; tags and fusion partners are left off.
UniProt Q03330: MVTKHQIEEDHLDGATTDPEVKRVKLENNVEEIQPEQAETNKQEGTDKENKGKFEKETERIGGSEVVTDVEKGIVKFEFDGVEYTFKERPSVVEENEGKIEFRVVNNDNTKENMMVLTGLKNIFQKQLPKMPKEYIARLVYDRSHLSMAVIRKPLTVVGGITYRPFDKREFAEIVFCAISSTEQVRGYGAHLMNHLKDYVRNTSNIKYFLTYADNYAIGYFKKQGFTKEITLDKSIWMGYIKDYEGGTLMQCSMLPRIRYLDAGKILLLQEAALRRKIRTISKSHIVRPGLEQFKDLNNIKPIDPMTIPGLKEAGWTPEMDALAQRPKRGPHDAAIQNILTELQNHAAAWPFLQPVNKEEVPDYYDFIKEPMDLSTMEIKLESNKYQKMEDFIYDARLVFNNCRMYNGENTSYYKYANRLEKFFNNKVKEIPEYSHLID
UniProt P35177: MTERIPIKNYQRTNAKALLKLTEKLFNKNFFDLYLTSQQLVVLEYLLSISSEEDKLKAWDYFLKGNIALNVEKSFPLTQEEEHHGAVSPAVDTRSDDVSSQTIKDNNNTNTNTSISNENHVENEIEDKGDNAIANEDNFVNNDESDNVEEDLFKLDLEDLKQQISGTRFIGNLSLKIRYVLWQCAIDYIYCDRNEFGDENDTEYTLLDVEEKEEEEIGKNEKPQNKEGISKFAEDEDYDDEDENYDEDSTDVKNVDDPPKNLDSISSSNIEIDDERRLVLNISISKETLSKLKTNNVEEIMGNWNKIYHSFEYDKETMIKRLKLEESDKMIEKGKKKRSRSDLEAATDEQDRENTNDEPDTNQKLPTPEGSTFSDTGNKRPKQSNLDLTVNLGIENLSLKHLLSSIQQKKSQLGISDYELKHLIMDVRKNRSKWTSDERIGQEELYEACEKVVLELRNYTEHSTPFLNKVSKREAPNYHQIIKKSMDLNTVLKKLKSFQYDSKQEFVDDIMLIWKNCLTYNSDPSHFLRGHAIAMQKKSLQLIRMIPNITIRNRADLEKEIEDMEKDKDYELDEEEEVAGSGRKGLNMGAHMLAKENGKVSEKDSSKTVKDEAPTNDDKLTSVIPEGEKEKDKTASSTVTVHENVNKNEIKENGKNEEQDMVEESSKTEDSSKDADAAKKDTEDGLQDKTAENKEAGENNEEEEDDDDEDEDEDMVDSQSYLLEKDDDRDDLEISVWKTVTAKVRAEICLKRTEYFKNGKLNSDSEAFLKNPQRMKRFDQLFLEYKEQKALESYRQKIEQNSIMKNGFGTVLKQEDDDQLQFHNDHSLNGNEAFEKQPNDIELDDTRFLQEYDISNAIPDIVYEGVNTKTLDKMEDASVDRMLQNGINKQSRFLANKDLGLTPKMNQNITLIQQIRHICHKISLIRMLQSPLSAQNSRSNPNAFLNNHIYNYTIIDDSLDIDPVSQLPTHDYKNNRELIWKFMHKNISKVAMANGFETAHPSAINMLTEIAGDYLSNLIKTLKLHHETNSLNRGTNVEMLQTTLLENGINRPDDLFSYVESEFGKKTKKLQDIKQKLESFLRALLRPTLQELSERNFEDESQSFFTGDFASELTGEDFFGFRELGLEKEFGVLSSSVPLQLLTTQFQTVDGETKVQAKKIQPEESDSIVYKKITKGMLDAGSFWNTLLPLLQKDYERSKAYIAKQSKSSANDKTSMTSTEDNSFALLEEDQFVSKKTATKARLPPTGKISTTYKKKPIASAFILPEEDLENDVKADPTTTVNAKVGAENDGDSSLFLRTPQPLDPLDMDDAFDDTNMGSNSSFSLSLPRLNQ
UniProt P00359: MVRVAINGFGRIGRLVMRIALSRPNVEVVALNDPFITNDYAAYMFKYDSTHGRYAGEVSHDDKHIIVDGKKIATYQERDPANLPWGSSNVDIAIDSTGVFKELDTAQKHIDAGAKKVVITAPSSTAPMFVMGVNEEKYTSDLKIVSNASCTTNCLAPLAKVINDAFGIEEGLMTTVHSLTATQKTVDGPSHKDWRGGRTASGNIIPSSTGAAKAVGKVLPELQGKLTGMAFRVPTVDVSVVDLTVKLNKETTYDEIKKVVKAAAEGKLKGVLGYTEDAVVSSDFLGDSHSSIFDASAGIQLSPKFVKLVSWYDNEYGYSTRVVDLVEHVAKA
UniProt P38811: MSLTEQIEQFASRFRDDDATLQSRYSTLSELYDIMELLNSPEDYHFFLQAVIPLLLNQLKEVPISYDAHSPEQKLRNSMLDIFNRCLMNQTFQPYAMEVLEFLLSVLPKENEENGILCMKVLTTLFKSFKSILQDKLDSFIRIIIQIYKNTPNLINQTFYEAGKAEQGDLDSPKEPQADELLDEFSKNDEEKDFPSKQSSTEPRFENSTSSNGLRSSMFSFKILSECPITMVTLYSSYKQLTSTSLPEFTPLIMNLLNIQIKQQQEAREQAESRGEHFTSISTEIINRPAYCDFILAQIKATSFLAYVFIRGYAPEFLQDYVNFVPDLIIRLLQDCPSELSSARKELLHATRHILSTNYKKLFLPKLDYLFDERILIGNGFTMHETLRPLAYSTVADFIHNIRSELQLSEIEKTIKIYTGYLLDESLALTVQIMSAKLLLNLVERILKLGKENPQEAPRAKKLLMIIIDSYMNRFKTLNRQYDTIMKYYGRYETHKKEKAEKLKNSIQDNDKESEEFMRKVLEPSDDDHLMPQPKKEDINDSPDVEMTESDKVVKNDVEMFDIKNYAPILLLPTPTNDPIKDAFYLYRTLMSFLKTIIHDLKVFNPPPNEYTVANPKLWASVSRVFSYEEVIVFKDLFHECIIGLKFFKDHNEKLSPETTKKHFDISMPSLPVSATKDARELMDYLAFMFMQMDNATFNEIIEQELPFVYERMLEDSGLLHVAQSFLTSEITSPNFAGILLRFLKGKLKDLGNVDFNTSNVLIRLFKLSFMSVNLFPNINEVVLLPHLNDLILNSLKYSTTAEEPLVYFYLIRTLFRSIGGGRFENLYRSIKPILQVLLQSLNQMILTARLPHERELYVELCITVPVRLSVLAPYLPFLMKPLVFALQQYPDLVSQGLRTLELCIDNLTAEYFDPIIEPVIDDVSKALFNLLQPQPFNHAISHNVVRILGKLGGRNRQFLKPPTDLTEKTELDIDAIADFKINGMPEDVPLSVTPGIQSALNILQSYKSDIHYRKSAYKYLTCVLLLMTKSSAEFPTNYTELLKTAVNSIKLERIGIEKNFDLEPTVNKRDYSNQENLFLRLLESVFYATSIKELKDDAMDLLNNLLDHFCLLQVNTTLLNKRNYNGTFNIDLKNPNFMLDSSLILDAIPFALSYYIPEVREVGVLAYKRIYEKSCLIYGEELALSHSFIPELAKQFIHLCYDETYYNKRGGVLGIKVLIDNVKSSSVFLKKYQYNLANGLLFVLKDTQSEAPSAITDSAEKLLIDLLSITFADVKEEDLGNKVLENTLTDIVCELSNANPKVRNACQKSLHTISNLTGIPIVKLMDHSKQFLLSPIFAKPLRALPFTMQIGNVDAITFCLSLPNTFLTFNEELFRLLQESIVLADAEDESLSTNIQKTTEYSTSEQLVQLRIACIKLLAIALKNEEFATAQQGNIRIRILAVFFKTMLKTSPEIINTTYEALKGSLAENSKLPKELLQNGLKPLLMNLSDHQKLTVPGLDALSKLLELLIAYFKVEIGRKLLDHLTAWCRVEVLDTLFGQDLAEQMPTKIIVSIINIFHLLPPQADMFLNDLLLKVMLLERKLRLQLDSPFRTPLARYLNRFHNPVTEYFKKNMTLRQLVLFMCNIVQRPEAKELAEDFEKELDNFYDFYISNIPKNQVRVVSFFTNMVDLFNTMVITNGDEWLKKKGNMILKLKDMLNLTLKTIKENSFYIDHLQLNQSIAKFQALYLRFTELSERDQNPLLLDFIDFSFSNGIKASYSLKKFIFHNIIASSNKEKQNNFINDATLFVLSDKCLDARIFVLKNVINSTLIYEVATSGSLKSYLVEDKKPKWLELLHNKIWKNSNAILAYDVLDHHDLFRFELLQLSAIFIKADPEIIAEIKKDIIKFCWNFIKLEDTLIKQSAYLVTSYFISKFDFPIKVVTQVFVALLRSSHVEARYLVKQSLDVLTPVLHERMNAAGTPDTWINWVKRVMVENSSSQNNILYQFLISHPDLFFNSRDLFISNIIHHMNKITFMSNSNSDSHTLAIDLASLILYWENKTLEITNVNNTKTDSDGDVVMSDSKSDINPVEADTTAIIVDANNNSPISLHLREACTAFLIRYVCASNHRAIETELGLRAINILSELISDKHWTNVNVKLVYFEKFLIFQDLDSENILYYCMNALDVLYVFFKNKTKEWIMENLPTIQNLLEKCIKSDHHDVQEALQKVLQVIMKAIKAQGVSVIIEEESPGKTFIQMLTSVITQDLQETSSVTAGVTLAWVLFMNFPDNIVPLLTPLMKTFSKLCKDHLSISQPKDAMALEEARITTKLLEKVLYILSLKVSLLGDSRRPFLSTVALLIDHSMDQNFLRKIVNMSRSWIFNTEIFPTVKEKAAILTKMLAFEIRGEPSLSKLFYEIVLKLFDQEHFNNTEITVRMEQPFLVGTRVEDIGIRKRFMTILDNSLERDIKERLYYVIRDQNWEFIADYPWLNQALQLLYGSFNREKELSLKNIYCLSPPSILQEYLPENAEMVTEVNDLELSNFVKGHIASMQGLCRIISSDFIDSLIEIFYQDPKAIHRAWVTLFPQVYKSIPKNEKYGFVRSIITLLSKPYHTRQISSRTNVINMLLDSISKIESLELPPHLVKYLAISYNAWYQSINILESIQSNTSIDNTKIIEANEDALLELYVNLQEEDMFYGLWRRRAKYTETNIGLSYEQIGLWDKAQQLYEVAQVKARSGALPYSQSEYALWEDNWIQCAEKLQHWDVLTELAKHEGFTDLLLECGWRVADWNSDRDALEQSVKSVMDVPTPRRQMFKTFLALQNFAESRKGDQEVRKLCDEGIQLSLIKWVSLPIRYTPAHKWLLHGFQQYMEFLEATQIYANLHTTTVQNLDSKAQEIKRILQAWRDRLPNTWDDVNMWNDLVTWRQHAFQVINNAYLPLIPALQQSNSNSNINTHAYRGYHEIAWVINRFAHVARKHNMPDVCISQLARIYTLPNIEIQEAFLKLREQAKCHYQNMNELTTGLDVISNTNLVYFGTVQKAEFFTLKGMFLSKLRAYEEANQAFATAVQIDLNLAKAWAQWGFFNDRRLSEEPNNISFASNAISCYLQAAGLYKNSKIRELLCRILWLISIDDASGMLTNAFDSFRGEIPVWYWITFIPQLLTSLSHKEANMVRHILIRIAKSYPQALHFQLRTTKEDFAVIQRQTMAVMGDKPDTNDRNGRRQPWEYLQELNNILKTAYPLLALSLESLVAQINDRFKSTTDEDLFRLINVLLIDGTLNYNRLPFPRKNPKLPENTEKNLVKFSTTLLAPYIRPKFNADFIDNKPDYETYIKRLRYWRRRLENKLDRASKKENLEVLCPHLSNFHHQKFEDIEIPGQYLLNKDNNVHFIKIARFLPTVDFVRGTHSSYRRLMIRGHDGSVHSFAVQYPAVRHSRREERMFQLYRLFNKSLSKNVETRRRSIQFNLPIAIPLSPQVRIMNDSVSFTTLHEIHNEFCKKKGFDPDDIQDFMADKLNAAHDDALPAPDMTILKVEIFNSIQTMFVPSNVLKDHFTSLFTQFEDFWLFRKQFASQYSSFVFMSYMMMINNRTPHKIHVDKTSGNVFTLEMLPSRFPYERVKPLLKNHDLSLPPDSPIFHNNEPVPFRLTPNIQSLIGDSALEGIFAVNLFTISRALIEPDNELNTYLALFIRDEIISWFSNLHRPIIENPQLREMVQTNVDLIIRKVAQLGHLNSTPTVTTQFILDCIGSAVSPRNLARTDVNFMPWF

Results are given in words; binding and its absence hold for the method and conditions named. In cells and extracts the contact can be indirect. Here binding means that the protein was enriched with, or labelled near, the bait; the list need not be complete.

For the molecule Spt7 (from UniProt P35177 1-1332), the binding result with Gcn5-TAP (S. cerevisiae) [1] is “binds”.
“Tdh3 (from UniProt P00359 1-332) (enzyme)”: in the test with Gcn5-TAP (S. cerevisiae) [2], the binding entry is “binds”.
For the molecule Tra1 (from UniProt P38811 1-3744), the binding result with Gcn5-TAP (S. cerevisiae) [1] is reported as “binds”.

B1: Spt20 (protein, UniProt P50875 1-604)
chain: MSANSPTGNDPHVFGIPVNATPSNMGSPGSPVNVPPPMNPAVANVNHPVMRTNSNSNANEGTRTLTREQIQQLQQRQRLLLQQRLLEQQRKQQALQNYEAQFYQMLMTLNKRPKRLYNFVEDADSILKKYEQYLHSFEFHIYENNYKICAPANSRLQQQQKQPELTSDGLILTKNNETLKEFLEYVARGRIPDAIMEVLRDCNIQFYEGNLILQVYDHTNTVDVTPKENKPNLNSSSSPSNNNSTQDNSKIQQPSEPNSGVANTGANTANKKASFKRPRVYRTLLKPNDLTTYYDMMSYADNARFSDSIYQQFESEILTLTKRNLSLSVPLNPYEHRDMLEETAFSEPHWDSEKKSFIHEHRAESTREGTKGVVGHIEERDEFPQHSSNYEQLMLIMNERTTTITNSTFAVSLTKNAMEIASSSSNGVRGASSSTSNSASNTRNNSLANGNQVALAAAAAAAAVGSTMGNDNNQFSRLKFIEQWRINKEKRKQQALSANINPTPFNARISMTAPLTPQQQLLQRQQQALEQQQNGGAMKNANKRSGNNATSNNNNNNNNLDKPKVKRPRKNAKKSESGTPAPKKKRMTKKKQSASSTPSSTTMS
Consider B1, for which, in the test with Ada1-TAP (S. cerevisiae), the binding result is on record as “binds”.

B2: Spt8 (protein, UniProt P38915 1-602)
chain: MDEVDDILINNQVVDDEEDDEEMLSGLENDSKQDLEGNDDGGEDEEDDDDDDEDDDDDEDEREDDDEQEDDDGEDDAARMDKTATPTNEHQHDEQKAAAAGAGGAGDSGDAVTKIGSEDVKLSDVDGGVGSREASSSTHEASANGEVYEYYKHMLNAAQIADSYNIYPTAAIPIQTHVNALAVSRGLKYLFLGGSDGYIRKYDLLNTLEGKLSLTILQKHSLAESIQNAGILQSYWENEIPQKKSEMKLSANKTDYEPKVSPVHSLEVQSECLFILSGLQNGGITMQGVRYMEGSIAHYFKGRNGHTQIVNILRLNGQEDRFLSGSWDKRLLEWDLQTGDIVNEFKKSRSELSSLEMRPLYSSVDVSGNVNSGKENENADDDMDSLFGDEDEDEKQDAGNEPVETGDGSNGEENKEQISEESLNIVYDESVFMTSGLNGSVHIWDRRMTQSPALSLERGAGVPPWCLSACWGVDGDHVYAGRRNACVEQFDLKMPSKPIHNLKLPSISGPVSCVKAMPNNKHLLCASRDNIRLYNVEIAVDASNSTTKSSKVPFLIVPGHHGGIISNLYLDPTSRFIISTSGNRGWQGNSTDTTLIYDIDLE
In the case of B2, the binding entry with Gcn5-TAP (S. cerevisiae) [1] is given as “binds”.

For the origin of these results see publication PMC5388395.
